# Values joined by “and” are separate entries in the source; they are usually repeats but may differ in a detail not shown here. Identical values can stand only once. Counter-ions that a name gives are not always drawn. ± gives the standard deviation of the averaged measurements. The list shows a part of the results. Repeats are few or missing, and single values can be far off.
# System: RAW 264.7
# Assay: HMGB1-induced TNF-alpha production relative to HMGB1-stimulated control; higher = more TNF-alpha secretion (less inhibition)
# Conditions: stimulus: HMGB1 5 ug/ml, 18 h
# [1] = compound concentration: 1 ug/ml
Structure (SMILES),HMGB1-induced TNF-alpha production [1] [%],HMGB1-induced TNF-alpha production (compound concentration: 3 uM)
CC(=O)Nc1nc2nc[nH]c2c(=O)[nH]1 [N-2-Acetylguanine],75.2,–
CN(C)CCC(c1ccc(Br)cc1)c1ccccn1 (racemic) [(±)-Brompheniramine maleate],–,93.8%
O=C1N(c2ccccc2)c2ccccc2C1(Cc1ccncc1)Cc1ccncc1,–,70.4%
O=C1N(c2ccccc2)c2ccccc2C1(Cc1ccncc1)Cc1ccncc1 [Linopirdine],–,106%
COc1ccc2[nH]c([S+]([O-])Cc3ncc(C)c(OC)c3C)nc2c1 (stereo not drawn),–,91.3% and 99.6%
COc1ccc2[nH]c([S+]([O-])Cc3ncc(C)c(OC)c3C)nc2c1 (stereo not drawn) [Omeprazole],–,74.3 ± 12%
COc1cccc(C(=O)NNC2OC(CO)C(O)C2O)c1 (stereo not drawn),68.5,–
"CC(=O)Oc1ccc(-c2coc3cc(OC4OC(COC5OCC(OC(C)=O)C(OC(C)=O)C5OC(C)=O)C(OC(C)=O)C(OC(C)=O)C4OC(C)=O)cc(OC(C)=O)c3c2=O)cc1 (stereo not drawn) [Genistein -7-O-Glc-Xyl, Acetate]",83.2,–
CC(=O)Nc1ccc(O)cc1 [Acetaminophen],–,106%
CC(=O)Nc1ccc(O)cc1,–,78.9%
CC(=O)Oc1c(C)c(C)c2c(c1C)CCC(C)(CCCC(C)CCCC(C)CCCC(C)C)O2 (stereo not drawn) [alpha-TOCHOPHERYL ACETATE],–,82.3%
Nc1nc(SCc2ccc([N+](=O)[O-])cc2)c2ncn([C@@H]3O[C@H](CO)[C@H](O)C3O)c2n1 (stereo partly drawn) [S-(4-Nitrobenzyl)-6-thioguanosine],–,83.4%
COc1cc(C(=O)NC2CCCNC2)cc(OC)c1OC (stereo not drawn),–,139%
C[C@]12CC[C@@H]3c4ccc(O)cc4CC[C@H]3[C@@H]1CCC2=O [Estrone],–,77 ± 2%
C[C@]12CC[C@@H]3c4ccc(O)cc4CC[C@H]3[C@@H]1CCC2=O,–,81.5%
CCCCCCCC/C=C\CCCCCCCC(=O)NCCc1ccc(O)c(O)c1 [N-Oleoyldopamine],–,158%
CN(C)[C@@H]1C(O)=C(C(N)=O)C(=O)[C@@]2(O)C(O)=C3C(=O)c4c(O)ccc(Cl)c4[C@@](C)(O)[C@H]3C[C@@H]12 [Chlortetracycline hydrochloride],–,68.7%
CN(C)[C@@H]1C(O)=C(C(N)=O)C(=O)[C@@]2(O)C(O)=C3C(=O)c4c(O)ccc(Cl)c4[C@@](C)(O)[C@H]3C[C@@H]12,–,86.9 ± 11%
COc1ccccc1-c1cc(=O)c2cc(O)ccc2o1,70.1,–
O=C1OC2(c3ccc(O)cc3Oc3cc(O)ccc32)c2ccccc21,–,96.6%
CC(=O)N(CC(C)C(=O)O)c1c(I)cc(I)c(N)c1I (stereo not drawn) [Iocetamic acid],–,100%
CC(=O)OCC1=C(C(=O)O)N2C(=O)[C@@H](NC(=O)CSc3ccncc3)[C@H]2SC1 [Cephapirin sodium salt],73.3,–
CC(=O)OCC1=C(C(=O)O)N2C(=O)[C@@H](NC(=O)CSc3ccncc3)[C@H]2SC1,–,86.7%

# Source: the supplement of paper PMC3682954
